Sequences and labels used below:
B1: OASL, endogenous (protein, UniProt Q15646 1-514)
chain: MALMQELYSTPASRLDSFVAQWLQPHREWKEEVLDAVRTVEEFLRQEHFQGKRGLDQDVRVLKVVKVGSFGNGTVLRSTREVELVAFLSCFHSFQEAAKHHKDVLRLIWKTMWQSQDLLDLGLEDLRMEQRVPDALVFTIQTRGTAEPITVTIVPAYRALGPSLPNSQPPPEVYVSLIKACGGPGNFCPSFSELQRNFVKHRPTKLKSLLRLVKHWYQQYVKARSPRANLPPLYALELLTIYAWEMGTEEDENFMLDEGFTTVMDLLLEYEVICIYWTKYYTLHNAIIEDCVRKQLKKERPIILDPADPTLNVAEGYRWDIVAQRASQCLKQDCCYDNRENPISSWNVKRARDIHLTVEQRGYPDFNLIVNPYEPIRKVKEKIRRTRGYSGLQRLSFQVPGSERQLLSSRCSLAKYGIFSHTHIYLLETIPSEIQVFVKNPDGGSYAYAINPNSFILGLKQQIEDQQGLPKKQQQLEFQGQVLQDWLGLGIYGIQDSDTLILSKKKGEALFPAS

Sequences of proteins named here, by UniProt entry; tags and fusion partners are left off. A change or cut given only in a name is not applied to a line headed by its entry. A line that says so, or that is headed by a name, gives the form on record, which may keep a tag or linker.
Flag-TRIM6 (full length), expressed in MKN28 cells (Q9C030, form named): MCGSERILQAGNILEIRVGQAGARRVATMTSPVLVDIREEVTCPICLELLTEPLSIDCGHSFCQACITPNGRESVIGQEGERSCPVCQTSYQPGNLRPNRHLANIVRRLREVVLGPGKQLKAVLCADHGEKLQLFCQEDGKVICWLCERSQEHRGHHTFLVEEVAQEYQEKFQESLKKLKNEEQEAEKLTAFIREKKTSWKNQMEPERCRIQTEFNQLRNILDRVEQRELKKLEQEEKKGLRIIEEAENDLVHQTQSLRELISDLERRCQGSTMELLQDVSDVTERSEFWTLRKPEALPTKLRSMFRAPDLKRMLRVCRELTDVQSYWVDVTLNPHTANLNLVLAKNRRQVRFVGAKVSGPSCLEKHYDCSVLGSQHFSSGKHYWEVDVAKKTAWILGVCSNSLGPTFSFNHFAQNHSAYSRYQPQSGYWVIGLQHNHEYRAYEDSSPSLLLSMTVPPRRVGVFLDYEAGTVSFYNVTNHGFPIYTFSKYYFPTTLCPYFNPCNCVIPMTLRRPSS
UniProt Q14966: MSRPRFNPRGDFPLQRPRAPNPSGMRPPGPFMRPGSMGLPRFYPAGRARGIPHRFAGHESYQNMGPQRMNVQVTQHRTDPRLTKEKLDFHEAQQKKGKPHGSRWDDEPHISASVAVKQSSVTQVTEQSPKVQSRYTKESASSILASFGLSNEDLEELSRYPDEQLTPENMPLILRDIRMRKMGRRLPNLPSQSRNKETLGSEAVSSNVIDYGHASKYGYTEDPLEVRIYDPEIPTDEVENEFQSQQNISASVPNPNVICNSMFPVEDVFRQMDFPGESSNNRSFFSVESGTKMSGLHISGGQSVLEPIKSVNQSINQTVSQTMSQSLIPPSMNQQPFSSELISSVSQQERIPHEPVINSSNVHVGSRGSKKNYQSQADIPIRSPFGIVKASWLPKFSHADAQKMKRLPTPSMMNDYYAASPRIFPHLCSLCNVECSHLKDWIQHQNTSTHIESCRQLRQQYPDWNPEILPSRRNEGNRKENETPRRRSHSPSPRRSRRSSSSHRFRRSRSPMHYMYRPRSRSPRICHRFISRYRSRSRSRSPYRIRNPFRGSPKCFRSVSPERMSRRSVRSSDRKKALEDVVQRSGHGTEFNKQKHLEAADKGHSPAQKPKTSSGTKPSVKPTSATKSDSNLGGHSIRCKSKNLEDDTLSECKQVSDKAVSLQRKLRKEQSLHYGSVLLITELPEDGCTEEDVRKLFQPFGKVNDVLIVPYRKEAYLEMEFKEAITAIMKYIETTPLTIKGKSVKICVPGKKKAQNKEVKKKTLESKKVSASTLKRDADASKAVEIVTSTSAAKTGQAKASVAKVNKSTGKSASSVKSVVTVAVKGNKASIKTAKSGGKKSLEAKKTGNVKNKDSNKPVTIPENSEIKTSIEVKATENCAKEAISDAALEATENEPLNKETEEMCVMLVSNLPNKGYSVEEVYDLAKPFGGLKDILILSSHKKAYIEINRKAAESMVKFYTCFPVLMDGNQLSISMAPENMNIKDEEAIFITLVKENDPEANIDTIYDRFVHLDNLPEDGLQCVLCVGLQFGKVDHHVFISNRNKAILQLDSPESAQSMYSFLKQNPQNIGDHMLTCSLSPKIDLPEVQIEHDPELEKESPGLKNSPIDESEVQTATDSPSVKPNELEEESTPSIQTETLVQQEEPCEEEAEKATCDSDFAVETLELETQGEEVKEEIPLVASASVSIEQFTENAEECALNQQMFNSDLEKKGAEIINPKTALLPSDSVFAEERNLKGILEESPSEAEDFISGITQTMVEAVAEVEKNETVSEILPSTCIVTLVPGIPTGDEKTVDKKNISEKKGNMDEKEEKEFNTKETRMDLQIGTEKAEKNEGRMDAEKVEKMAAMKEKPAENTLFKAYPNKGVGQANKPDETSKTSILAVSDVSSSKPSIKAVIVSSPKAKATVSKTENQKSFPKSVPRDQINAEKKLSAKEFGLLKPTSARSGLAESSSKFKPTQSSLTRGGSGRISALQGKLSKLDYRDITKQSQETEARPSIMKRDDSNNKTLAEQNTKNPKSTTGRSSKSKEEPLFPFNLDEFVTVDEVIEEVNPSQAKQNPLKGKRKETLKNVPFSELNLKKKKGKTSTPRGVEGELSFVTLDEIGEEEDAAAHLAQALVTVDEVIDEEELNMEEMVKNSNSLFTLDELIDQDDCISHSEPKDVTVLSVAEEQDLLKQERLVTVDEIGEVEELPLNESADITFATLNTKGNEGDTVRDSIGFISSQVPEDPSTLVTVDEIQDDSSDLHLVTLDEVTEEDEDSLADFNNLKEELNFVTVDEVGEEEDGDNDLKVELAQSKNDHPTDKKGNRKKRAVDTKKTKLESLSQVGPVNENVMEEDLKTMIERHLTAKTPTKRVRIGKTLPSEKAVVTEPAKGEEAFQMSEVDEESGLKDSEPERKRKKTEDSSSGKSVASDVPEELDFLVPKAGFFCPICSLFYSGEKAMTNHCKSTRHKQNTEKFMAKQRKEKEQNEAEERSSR
UniProt Q8N884: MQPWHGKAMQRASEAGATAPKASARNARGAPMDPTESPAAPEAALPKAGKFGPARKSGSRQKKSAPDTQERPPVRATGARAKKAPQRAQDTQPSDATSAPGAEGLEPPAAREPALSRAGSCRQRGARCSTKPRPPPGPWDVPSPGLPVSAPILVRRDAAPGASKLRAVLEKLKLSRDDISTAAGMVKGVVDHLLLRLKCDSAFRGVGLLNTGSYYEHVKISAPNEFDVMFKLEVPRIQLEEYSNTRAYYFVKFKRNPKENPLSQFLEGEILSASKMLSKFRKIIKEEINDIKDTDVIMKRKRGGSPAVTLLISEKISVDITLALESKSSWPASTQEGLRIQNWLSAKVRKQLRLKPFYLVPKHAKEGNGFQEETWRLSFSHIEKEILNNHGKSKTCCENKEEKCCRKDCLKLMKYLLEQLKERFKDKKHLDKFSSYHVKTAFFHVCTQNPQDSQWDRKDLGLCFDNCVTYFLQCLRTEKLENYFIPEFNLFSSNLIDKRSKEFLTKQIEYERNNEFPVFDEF

Results are given in words; binding and its absence hold for the method and conditions named. In cells and extracts the contact can be indirect. A yes stands for co-enrichment or nearness to the bait. Other partners may have been found.

This experiment deals with Flag-TRIM6 (full length), expressed in MKN28 cells (human) (UniProt Q9C030). The experiment in a line: affinity purification with mass spectrometry; MKN28 cells transiently expressing empty vector, Flag-TRIM6 or Flag-TRIM6-ΔPRY-SPRY; anti-Flag immunoprecipitation, SDS-PAGE, gel slices digested with trypsin, LC-MS/MS.
As to “ZNF638, endogenous (from UniProt Q14966 1-1978)”, the binding entry is reported as “binds”.
The value for “cGAS (cyclic GMP-AMP synthase), endogenous (from UniProt Q8N884 1-522) (enzyme)” was “binds”; that for B1 was “binds”.

For the origin of these results see article PMC12355757, “TRIM6 ablation reverses ICB resistance in MSS gastric cancer by unleashing cGAS-STING-dependent antitumor immunity” (Journal of Experimental & Clinical Cancer Research : CR, 2025).
